Values quoted from earlier work in patent US20140328930A1, “Pharmaceutical Compositions” (Alpharma Pharmaceuticals, LLC, priority 2007, published 2014).
Counter-ions that a name gives are not always drawn.

Conditions: cited from earlier work

For `O=C1CC[C@@]2(O)[C@H]3Cc4ccc(O)c5c4[C@@]2(CCN3CC2CC2)[C@H]1O5` [hydrochloride salt of naltrexone], the Solubility in water is given as “about 100 mg/cc”.
